PubChem BioAssay AID1508597, Cure First, 2020

Purpose: 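Knock-downs altering ovarian cancer cell survival with or without PARP inhibitor rucaparib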 (primary screen)
Cell system: human ovarian carcinoma lines grown from tumours: OCI-P5x (papillary serous) and OCI-C5x (clear cell)
Reagents: siRNA pool against human genes, 1.25 pmol siRNA per well
Duration: 72 h or 96 h, depending on the cell culture
Treatment: rucaparib 20 µM (about IC30) or vehicle, present until read-out
Rucaparib or vehicle: Rucaparib
Cell line: OCI-P5x (serous)
Detection: 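Luminescent ATP-based viability assay read 72 or 96 h after transfection, depending on culture, given as normalised percent viability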
Reading the numbers: viability, normalised: higher = more viable cells remaining
Active means: 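a well counts as a hit if its normalised viability is under 80 percent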
Calls: active = viability under 80%; inactive = viability 80% or more
Shown is an unselected part of the about 2,100 reagents, in one setting of the screen. 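Calls flag viability under 80% in either arm, not effects specific to rucaparib; the reference for percent is not stated.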 Unmarked entries are inactive. A reagent listed more than once was tested more than once; the source does not tell the runs apart. Reagent sequences are not shown. Not given: the 100% reference.

SMC4 (structural maintenance of chromosomes 4), technical replicate 1 | viability, normalised (%) = 56.6 (active)
SMC4 (structural maintenance of chromosomes 4), technical replicate 2 | viability, normalised (%) = 62.5 (active)
SMC4 (structural maintenance of chromosomes 4), technical replicate 3 | viability, normalised (%) = 64.9 (active)
TANK (TRAF family member associated NFKB activator), technical replicate 1 | viability, normalised (%) = 79.5 (active)
TANK (TRAF family member associated NFKB activator), technical replicate 2 | viability, normalised (%) = 55.7 (active)
TANK (TRAF family member associated NFKB activator), technical replicate 3 | viability, normalised (%) = 77.8 (active)
EHMT2 (euchromatic histone lysine methyltransferase 2), technical replicate 1 | viability, normalised (%) = 36.4 (active)
EHMT2 (euchromatic histone lysine methyltransferase 2), technical replicate 2 | viability, normalised (%) = 42.3 (active)
EHMT2 (euchromatic histone lysine methyltransferase 2), technical replicate 3 | viability, normalised (%) = 45.4 (active)
ITK (IL2 inducible T cell kinase), technical replicate 1 | viability, normalised (%) = 69.4 (active)
ITK (IL2 inducible T cell kinase), technical replicate 2 | viability, normalised (%) = 85.2
ITK (IL2 inducible T cell kinase), technical replicate 3 | viability, normalised (%) = 72.2 (active)
BRD4 (bromodomain containing 4), technical replicate 1 | viability, normalised (%) = 74.2 (active)
BRD4 (bromodomain containing 4), technical replicate 1 | viability, normalised (%) = 44.1 (active)
BRD4 (bromodomain containing 4), technical replicate 1 | viability, normalised (%) = 136
BRD4 (bromodomain containing 4), technical replicate 1 | viability, normalised (%) = 49.6 (active)
BRD4 (bromodomain containing 4), technical replicate 2 | viability, normalised (%) = 114
BRD4 (bromodomain containing 4), technical replicate 2 | viability, normalised (%) = 50.2 (active)
BRD4 (bromodomain containing 4), technical replicate 2 | viability, normalised (%) = 57.4 (active)
BRD4 (bromodomain containing 4), technical replicate 2 | viability, normalised (%) = 42.6 (active)
BRD4 (bromodomain containing 4), technical replicate 3 | viability, normalised (%) = 71.9 (active)
BRD4 (bromodomain containing 4), technical replicate 3 | viability, normalised (%) = 120
BRD4 (bromodomain containing 4), technical replicate 3 | viability, normalised (%) = 45.7 (active)
BRD4 (bromodomain containing 4), technical replicate 3 | viability, normalised (%) = 47.7 (active)
RBL1 (RB transcriptional corepressor like 1), technical replicate 1 | viability, normalised (%) = 23.2 (active)
RBL1 (RB transcriptional corepressor like 1), technical replicate 2 | viability, normalised (%) = 32.4 (active)
RBL1 (RB transcriptional corepressor like 1), technical replicate 3 | viability, normalised (%) = 38.5 (active)
KDM4C (lysine demethylase 4C), technical replicate 1 | viability, normalised (%) = 53.9 (active)
KDM4C (lysine demethylase 4C), technical replicate 2 | viability, normalised (%) = 41.4 (active)
KDM4C (lysine demethylase 4C), technical replicate 3 | viability, normalised (%) = 50.8 (active)
GTF2H3 (general transcription factor IIH subunit 3), technical replicate 1 | viability, normalised (%) = 71.5 (active)
GTF2H3 (general transcription factor IIH subunit 3), technical replicate 2 | viability, normalised (%) = 77 (active)
GTF2H3 (general transcription factor IIH subunit 3), technical replicate 3 | viability, normalised (%) = 63.7 (active)
PDCD10 (programmed cell death 10), technical replicate 1 | viability, normalised (%) = 91.5
PDCD10 (programmed cell death 10), technical replicate 2 | viability, normalised (%) = 82.1
PDCD10 (programmed cell death 10), technical replicate 3 | viability, normalised (%) = 95.4
POLD2 (DNA polymerase delta 2, accessory subunit), technical replicate 1 | viability, normalised (%) = 72.9 (active)
POLD2 (DNA polymerase delta 2, accessory subunit), technical replicate 2 | viability, normalised (%) = 78.9 (active)
POLD2 (DNA polymerase delta 2, accessory subunit), technical replicate 3 | viability, normalised (%) = 84.7
XRCC2 (X-ray repair cross complementing 2), technical replicate 1 | viability, normalised (%) = 61.4 (active)
XRCC2 (X-ray repair cross complementing 2), technical replicate 2 | viability, normalised (%) = 61.4 (active)
XRCC2 (X-ray repair cross complementing 2), technical replicate 3 | viability, normalised (%) = 58.8 (active)

No new results follow: 3 of the entries above.
EHMT2 (euchromatic histone lysine methyltransferase 2), technical replicate 3 | viability, normalised (%) = 45.4 (active)
ITK (IL2 inducible T cell kinase), technical replicate 1 | viability, normalised (%) = 69.4 (active)
ITK (IL2 inducible T cell kinase), technical replicate 2 | viability, normalised (%) = 85.2
